The assay has as its target Trichomonas vaginalis hydrogenosomal processing peptidase β subunit, βHPP-His (Trichomonas vaginalis) (UniProt A2ES04). Nature of the assay: pull-down; lysates of E. coli expressing βHPP-His and non-tagged αHPP incubated 30 min on ice in 20 mM Tris, 20 mM NaCl (pH 8.6), 1 mM MnCl2; heterodimer purified on a nickel column under native conditions.

Chains of the proteins cited; added tags and fusions are not shown. Lines headed by an entry give the natural chain unless they say otherwise; changes in a name come on top.
UniProt A2D7B7: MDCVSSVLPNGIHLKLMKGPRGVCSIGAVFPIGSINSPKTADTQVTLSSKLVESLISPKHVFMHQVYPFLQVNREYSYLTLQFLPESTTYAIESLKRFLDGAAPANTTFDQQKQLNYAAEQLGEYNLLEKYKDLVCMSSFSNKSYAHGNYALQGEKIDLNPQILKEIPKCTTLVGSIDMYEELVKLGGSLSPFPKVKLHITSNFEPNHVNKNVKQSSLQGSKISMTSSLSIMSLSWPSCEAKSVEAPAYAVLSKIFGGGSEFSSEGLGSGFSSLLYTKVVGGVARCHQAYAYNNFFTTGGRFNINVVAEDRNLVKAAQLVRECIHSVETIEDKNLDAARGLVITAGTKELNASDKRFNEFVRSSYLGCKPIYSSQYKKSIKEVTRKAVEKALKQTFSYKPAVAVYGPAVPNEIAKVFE

Results are given in words; binding and its absence hold for the method and conditions named. Binding seen in cells or lysates may run through a third protein. A result given as binding can be weak or reduced; the word gives no strength.

As to “Trichomonas vaginalis hydrogenosomal processing peptidase α subunit, non-tagged αHPP (from UniProt A2D7B7)”, the binding result is “binds”.

For the origin of these results see PMC2597178.
